Series [1] is described as follows: Recovery of volatile organic analytes from spiked water and cod liver oil/water emulsion (Table 3). The settings on record: 10 min, condenser -10° C., ± one sigma; for Recovery, H2O/Oil 20 mL: 1 g cod liver oil and 20 ml water emulsion; for Recovery, H2O/Oil 5 mL: 1 gram cod liver oil and 5 ml water emulsion; for Recovery, Water 5 mL: 5 mL water, relative to internal standard d3-vinylchloride; for Recovery, Water 20 mL: 20 mL water, relative to d3-vinylchloride.

A short description of series [2]: Recovery of volatile organic analytes from spiked soil (Table 5). Conditions: 50 ppb, condenser -10° C.; for Recovery, Soil/Oil Water: 5 g soil + 1 g cod liver oil + water slurry; for Recovery, Soil/Oil: 5 g soil + 1 g cod liver oil, spiked using 0.2 ml water; for Recovery, Soil/Water: 5 g soil + 5 ml water slurry, 10 min.
Series [3] is described as follows: Method detection limits for volatile organic analytes in water (Table 6). The settings on record: 5 mL water, 4 ppb; for Method Detection Limit, External Standard Method: average of three nonconsecutive-day studies; for Method Detection Limit, Internal Standard Method: d3-vinylchloride internal standard.
A short description of series [4]: Method detection limits for volatile organic analytes in soil (Table 7). The settings on record: 4 ppb, average of three nonconsecutive-day studies, values marked ^c: MDL exceed concentration studies.
The conditions of series [5]: 1 gram cod liver oil, composite of 25, 50 and 200 ppb spikes, 10 min, condenser -10° C.

Regarding `CC(=O)CC(C)C` [4-Methyl-2-pentanone], in series [1], the “Recovery, H2O/Oil 20 mL” value worked out at 29 ± 6%; the “Recovery, H2O/Oil 5 mL” value turned out to be 43 ± 7%; the “Recovery, Water 5 mL” value amounted to 69 ± 20%; the “Recovery, Water 20 mL” value stood at 54 ± 22%. Moreover, in series [2], the “Recovery, Soil/Oil Water” value is recorded as 81 ± 12%; the “Recovery, Soil/Oil” value amounted to 143 ± 28%; the “Recovery, Soil/Water” value was 79 ± 24%. In series [3], the “Method Detection Limit, External Standard Method” value came out at 3.8 PPb and the “Method Detection Limit, Internal Standard Method” value came out at 3.7 PPb. Besides, in series [4], the “MDL, External Standard Method” value amounted to 3.9 ppb and the “MDL, Internal Standard Method” value is listed as 4.4 ppb. Further, in series [5], the “Oil Recovery” value amounted to 100 ± 33%.

As to `C=C(Cl)Cl` [1,1-Dichloroethene], in series [1], the “Recovery, H2O/Oil 20 mL” value came out at 70 ± 16%; the “Recovery, H2O/Oil 5 mL” value was 103 ± 17%; the “Recovery, Water 5 mL” value is listed as 84 ± 6%; the “Recovery, Water 20 mL” value amounted to 74 ± 15%. Also, in series [2], the “Recovery, Soil/Oil Water” value came out at 65 ± 9%; the “Recovery, Soil/Oil” value worked out at 81 ± 12%; the “Recovery, Soil/Water” value is on record as 53 ± 20%. In addition, in series [3], the “Method Detection Limit, External Standard Method” value is on record as 3.4 PPb and the “Method Detection Limit, Internal Standard Method” value was found to be 2.8 PPb. In addition, in series [4], the “MDL, External Standard Method” value was determined as 3.8 ppb and the “MDL, Internal Standard Method” value is listed as 3.1 ppb. Also, the “Oil Recovery” value in series [5] was found to be 71 ± 24%.

As for `Cl/C=C/CCl` [trans-1,3-Dichloropropene], in series [1], the “Recovery, H2O/Oil 20 mL” value was determined as 53 ± 9%; the “Recovery, H2O/Oil 5 mL” value worked out at 54 ± 9%; the “Recovery, Water 5 mL” value is 94 ± 15%; the “Recovery, Water 20 mL” value was 87 ± 18%. Further, in series [2], the “Recovery, Soil/Oil Water” value was 51 ± 5%; the “Recovery, Soil/Oil” value was found to be 66 ± 18%; the “Recovery, Soil/Water” value came to 70 ± 18%. Besides, in series [3], the “Method Detection Limit, External Standard Method” value is on record as 2.3 PPb and the “Method Detection Limit, Internal Standard Method” value is on record as 1.9 PPb. For the same molecule, in series [4], the “MDL, External Standard Method” value came to 2.4 ppb and the “MDL, Internal Standard Method” value came out at 1.8 ppb. Besides, in series [5], the “Oil Recovery” value came to 34 ± 5%.

In the case of `CCCl` [Chloroethane], in series [1], the “Recovery, H2O/Oil 20 mL” value worked out at 76 ± 20%; the “Recovery, H2O/Oil 5 mL” value is listed as 102 ± 16%; the “Recovery, Water 5 mL” value was 88 ± 10%; the “Recovery, Water 20 mL” value stood at 81 ± 17%. Besides, in series [2], the “Recovery, Soil/Oil Water” value was 58 ± 22%; the “Recovery, Soil/Oil” value is reported as 70 ± 14%; the “Recovery, Soil/Water” value is recorded as 48 ± 20%. Moreover, in series [3], the “Method Detection Limit, External Standard Method” value was found to be 6.1 PPb and the “Method Detection Limit, Internal Standard Method” value was determined as 5.6 PPb. For the same molecule, in series [4], the “MDL, External Standard Method” value is recorded as 7.5 ppb and the “MDL, Internal Standard Method” value worked out at 6.2 ppb. For the same molecule, the “Oil Recovery” value in series [5] came to 72 ± 21%.

As to `BrC(Br)Br` [Bromoform], in series [1], the “Recovery, H2O/Oil 20 mL” value was 34 ± 7%; the “Recovery, H2O/Oil 5 mL” value was 35 ± 8%; the “Recovery, Water 5 mL” value is recorded as 85 ± 19%; the “Recovery, Water 20 mL” value is 83 ± 23%. Further, in series [2], the “Recovery, Soil/Oil Water” value came out at 34 ± 3%; the “Recovery, Soil/Oil” value turned out to be 30%; the “Recovery, Soil/Water” value came out at 81 ± 21%. In series [3], the “Method Detection Limit, External Standard Method” value was 2.3 PPb and the “Method Detection Limit, Internal Standard Method” value is 2.1 PPb. Besides, in series [4], the “MDL, External Standard Method” value was 2.5 ppb and the “MDL, Internal Standard Method” value is on record as 1.5 ppb. Also, the “Oil Recovery” value in series [5] is on record as 19 ± 7%.
